In patent US10174348B2, “Bacteria engineered for ester production” (priority 2013, dated 2019):

Assays:
E. coli [1] = test: Isobutyl isobutyrate degradation by bacteria; assay type: cell-based; details: for Remaining isobutyl isobutyrate / formation of isobutanol: 1 g L^−1 isobutyl isobutyrate added, 24 h, 30° C.
E. coli [2] = test: Isobutyl acetate degradation by bacteria; assay type: cell-based; details: for Remaining isobutyl acetate / formation of isobutanol: 1 g L^−1 isobutyl acetate added, 24 h, 30° C.

Structure (SMILES)	Remaining isobutyl isobutyrate (E. coli [1]; AL704)	formation of isobutanol (E. coli [1]; AL704)	Remaining isobutyl isobutyrate (E. coli [1]; No cell)	formation of isobutanol (E. coli [1]; No cell)	Remaining isobutyl isobutyrate (E. coli [1]; Strain 9)	formation of isobutanol (E. coli [1]; Strain 9)	Remaining isobutyl isobutyrate (E. coli [1]; Strain 16)	formation of isobutanol (E. coli [1]; Strain 16)	Remaining isobutyl isobutyrate (E. coli [1]; Strain 18)	formation of isobutanol (E. coli [1]; Strain 18)	degradation of isobutyl isobutyrate by E. coli (E. coli [1]; after 24 h)	Remaining isobutyl acetate (E. coli [2]; JCL260)	formation of isobutanol (E. coli [2]; JCL260)	Remaining isobutyl acetate (E. coli [2]; No cell)	formation of isobutanol (E. coli [2]; No cell)	Remaining isobutyl acetate (E. coli [2]; Strain 4)	formation of isobutanol (E. coli [2]; Strain 4)	degradation of isobutyl acetate by E. coli JCL260 (E. coli [2]; incubated with isobutyl acetate for 24 h)
CC(C)COC(=O)C(C)C [Isobutyl isobutyrate, isobutyl isobutyrate]	98.8 ± 0.18%	1.2 ± 0.18%	99.3 ± 0.22%	0.7 ± 0.22%	98.5 ± 0.48%	1.5 ± 0.48%	97.5 ± 0.48%	2.5 ± 0.48%	98.8 ± 0.40%	1.2 ± 0.40%	no degradation	–	–	–	–	–	–	–
CC(=O)OCC(C)C [isobutyl acetate]	–	–	–	–	–	–	–	–	–	–	–	99.9 ± 0.023%	0.14 ± 0.027%	99.9 ± 0.031%	0.12 ± 0.031%	99.8 ± 0.023%	0.22 ± 0.023%	No degradation
